No constants are given. Whether binding was seen depends on the method and setting. In cells and extracts the contact can be indirect. Binding calls can cover weak binding; strength is not graded here. Sequences can lack the tags named with a protein.

Protein sequences, listed by entry. Tags and fused reporters are not part of them. Lines headed by an entry give the natural chain unless they say otherwise; changes in a name come on top.
UniProt Q9TXM1: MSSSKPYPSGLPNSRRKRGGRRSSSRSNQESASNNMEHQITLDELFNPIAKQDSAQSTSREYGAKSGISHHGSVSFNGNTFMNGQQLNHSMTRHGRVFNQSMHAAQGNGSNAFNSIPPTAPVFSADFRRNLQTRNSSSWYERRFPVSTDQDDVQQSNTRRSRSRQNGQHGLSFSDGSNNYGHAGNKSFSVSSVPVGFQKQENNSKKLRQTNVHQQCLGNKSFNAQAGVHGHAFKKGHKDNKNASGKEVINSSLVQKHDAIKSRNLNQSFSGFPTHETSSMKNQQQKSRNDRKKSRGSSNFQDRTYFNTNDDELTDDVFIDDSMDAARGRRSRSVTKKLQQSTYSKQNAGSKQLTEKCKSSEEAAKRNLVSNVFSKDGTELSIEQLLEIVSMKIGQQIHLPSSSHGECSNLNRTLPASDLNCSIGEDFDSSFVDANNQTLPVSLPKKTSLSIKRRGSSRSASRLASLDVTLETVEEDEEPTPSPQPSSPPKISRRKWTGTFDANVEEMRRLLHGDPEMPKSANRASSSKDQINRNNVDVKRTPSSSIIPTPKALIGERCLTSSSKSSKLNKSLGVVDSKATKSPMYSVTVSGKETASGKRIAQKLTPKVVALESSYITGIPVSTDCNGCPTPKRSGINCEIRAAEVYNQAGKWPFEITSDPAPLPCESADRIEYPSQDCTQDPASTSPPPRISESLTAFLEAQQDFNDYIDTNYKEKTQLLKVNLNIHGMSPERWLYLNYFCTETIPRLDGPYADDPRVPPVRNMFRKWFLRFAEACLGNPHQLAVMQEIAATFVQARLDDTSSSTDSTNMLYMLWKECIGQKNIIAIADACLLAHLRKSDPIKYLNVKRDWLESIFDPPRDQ
UniProt Q9TZK8: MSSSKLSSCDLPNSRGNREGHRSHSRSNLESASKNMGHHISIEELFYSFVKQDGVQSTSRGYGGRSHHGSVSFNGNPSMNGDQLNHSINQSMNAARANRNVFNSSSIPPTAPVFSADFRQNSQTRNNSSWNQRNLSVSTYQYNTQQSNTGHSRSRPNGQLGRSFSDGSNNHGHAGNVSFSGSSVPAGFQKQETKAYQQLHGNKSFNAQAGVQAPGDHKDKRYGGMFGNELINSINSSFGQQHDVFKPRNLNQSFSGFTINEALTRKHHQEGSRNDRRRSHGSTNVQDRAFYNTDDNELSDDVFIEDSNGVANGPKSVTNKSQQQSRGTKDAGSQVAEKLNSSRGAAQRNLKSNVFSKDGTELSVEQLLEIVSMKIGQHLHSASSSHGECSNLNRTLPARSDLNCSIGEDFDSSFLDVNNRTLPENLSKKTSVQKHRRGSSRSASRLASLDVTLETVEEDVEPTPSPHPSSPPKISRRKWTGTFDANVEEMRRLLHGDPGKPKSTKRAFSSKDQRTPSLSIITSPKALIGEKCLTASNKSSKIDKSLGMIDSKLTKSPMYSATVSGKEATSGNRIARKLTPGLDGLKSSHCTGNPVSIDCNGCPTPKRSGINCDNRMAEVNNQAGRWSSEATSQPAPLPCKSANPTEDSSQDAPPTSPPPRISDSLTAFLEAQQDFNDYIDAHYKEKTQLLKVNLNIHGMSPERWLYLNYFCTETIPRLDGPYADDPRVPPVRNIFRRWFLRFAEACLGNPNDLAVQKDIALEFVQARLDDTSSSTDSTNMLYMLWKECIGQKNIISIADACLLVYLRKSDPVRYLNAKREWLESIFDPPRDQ

Test [1] deals with GST fusion of MEG-3 (C. elegans) (UniProt Q9TXM1). Briefly: pull-down; GST fusions bound to GST beads and washed; incubated with MBP fusions (E. coli lysates) at 4°C for 1 hr in 50 mM Hepes pH 7.4, 1 mM EGTA, 1 mM MgCl2, 500 mM KCl, 10% glycerol, 0.05% NP-40; eluted with 10 mM reduced glutathione; Western; only the target purified.
Test [2] concerns the target GST fusion of MEG-4 (C. elegans) (UniProt Q9TZK8). The test is described as above.

B1: MBP fusion of PAA-1, the scaffolding subunit of PP2A (protein, UniProt Q09543 1-590)
chain: MSVVEEATDDALYPIAVLIDELRNEDVTLRLNSIRKLSTIALALGVERTRNELIQFLTDTIYDEDEVLLVLAEQLGNFTPLVGGPDHVHCLLLPLENLATVEETVVRDKAVESLRKIADKHSSASLEEHFVPMLRRLATGDWFTSRTSACGLFSVVYPRVSPAIKSELKSMFRTLCRDDTPMVRRAAAAKLGEFAKVFEKTAVIEGLHSSLTDLHVDEQDSVRLLTVESAIAFGTLLDKANKKKLIEPILIELFDDKSWRVRYMVAEKLIEIQNVLGEDMDTTHLVNMYTNLLKDPEGEVRCAATQRLQEFALNLPEDKRQNIICNSLLNVAKELVTDGNQLVKSELAGVIMGLAPLIGKEQTVSELLPIYMQLLNDQTPEVRLNIISSLDKVNEVIGAAQLSTSLLPAIVGLAEDGKWRVRLAIVQFMPLLASQLGQEFFDEKLLPLCLNWLTDHVFSIREASTLIMKELTQKFGGQWASTNIVPKMQKLQKDTNYLQRMTCLFCLNTLSEAMTQEQILKEIMPIVKDLVEDDVPNVRFNAAKSLKRIGKNLTPSTLTSEVKPLLEKLGKDSDFDVRYFSEEAKNSLGL
For B1, the binding result in test [1] and in test [2] was “no binding” in each case.

B2: MBP fusion of PGL-1 (protein, UniProt Q9TZQ3 1-730)
chain: MEANKREIVDFGGLRSYFFPNLAHYITKNDEELFNNTSQANKLAAFVLGASKDAPGDEDILEMILPNDANAAVIAAGMDVCLLLGDKFRPKFDAAAEKLSGLGHAHDLVSVIDDDKKLGMLARKAKLKKTEDAKILQALLKVIAIDDAAEKFVELTELVSQLDLDFDVYVLTKILGLISEETSDEVDIIRDNVVNAFDSCKPLLKQLMLDGPKSEPADPFISLLMDPLEESVGKVVNHIAQLFEEASKNEGDESLVLRSQLGYQLFFLIVRSLADGKREVSKKILSGIPTSVRAEVFPGLQRSVYKSAVFLGNHIIQVLLGSKKSFEDWDVVGVAKDLESAWKRRAIAELIKKFQVSILEQCFDKPVPLIPQSPLNNDAVIDNVNKALQFALWLTEFYGSENETEALGELRFLDSTSKNLLVDSFKKFVQGINSKTHVTRIVESLEKCCLSDTPSGRKSNVQPSTSQQQDSAYTKEEMTTVHNTYSVNTKAQVLNGLSDTNSSGLLVDSKDSLSLQEISCDEVDSSTLLSSSRNIGEGVTVKAVDPVPEKVNDAQQQQTVNEIEMASDANQDTSSSASPEVAPSFSTDGWDSPTKSVALPPGMQQIDEEETTVADKDSTPQPQARAETAWGSGDATPMPLPAPTNQYKVSGFGEAKVAKGFGQFAPTSSAYGGGGGRGGYGGGDRGGRGGYGGDRGGRGGYGGGDRGGRGGYGGDRGRGGYGGRGGRGGF
As to B2, the binding entry in test [1] and in test [2] was “binds” throughout.

For the origin of these results see publication PMC4296509.
